This note sets out measurements from patent publication US7591861B2, “Processes to pre-treat hair with organic solvents” (The Procter & Gamble Company, priority 2007, dated 2009).

A short description of the data set: Hair treatment protocol: solvent pre-treatment, then oxidative dyeing, colour strength K/S. Conditions: hair switch soaked 5 minutes in solvent, then Nice n' Easy level 3 oxidative colorant 30 minutes at 30° C.; change vs. DI water.

For `CC(=O)CC(C)C` [4-methyl-2-pentanone], the “K/S vs. DI Water” value is reported as “+66%”.

Turning to `O=C1CCCCC1` [Cyclohexanone], the “K/S vs. DI Water” value is “+17%”.
